Test results from PMC4140855, “Production of an Attenuated Phenol-Soluble Modulin Variant Unique to the MRSA Clonal Complex 30 Increases Severity of Bloodstream Infection” (PLoS Pathogens, 2014).

Test: PSM production in culture filtrates of CC30 strains by HPLC/MS

Question: Which “Average PSMα3 production, contemporary CC30 strains” value (contemporary, difference to historic not significant) does the source give for `CSCC[C@H](NC=O)C(=O)N[C@@H](CCC(=O)O)C(=O)N[C@@H](Cc1ccccc1)C(=O)N[C@H](C(=O)N[C@@H](C)C(=O)N[C@@H](CCCCN)C(=O)N[C@@H](CC(C)C)C(=O)N[C@@H](Cc1ccccc1)C(=O)N[C@@H](CCCCN)C(=O)N[C@@H](Cc1ccccc1)C(=O)N[C@@H](Cc1ccccc1)C(=O)N[C@@H](CCCCN)C(=O)N[C@@H](CC(=O)O)C(=O)N[C@@H](CC(C)C)C(=O)N[C@@H](CC(C)C)C(=O)NCC(=O)N[C@@H](CCCCN)C(=O)N[C@@H](Cc1ccccc1)C(=O)N[C@@H](CC(C)C)C(=O)NCC(=O)N[C@@H](CC(N)=O)C(=O)N[C@@H](CC(N)=O)C(=O)O)C(C)C` [PSMα3] here?
Answer: 0.99×10^7 intensity units

Question: And the “Average PSMα3 production, historic CC30 strains” value (historic)?
Answer: 1.16×10^8 intensity units
